The source of these data is article PMC10080078, “Use of phage display biopanning as a tool to design CAR-T cells against glioma stem cells” (Frontiers in Oncology, 2023).

Test [1] concerns the target T1, Recombinant Human N-Cadherin extracellular domain, amino acids 160-724 (human) (UniProt P19022).
T1 sequence: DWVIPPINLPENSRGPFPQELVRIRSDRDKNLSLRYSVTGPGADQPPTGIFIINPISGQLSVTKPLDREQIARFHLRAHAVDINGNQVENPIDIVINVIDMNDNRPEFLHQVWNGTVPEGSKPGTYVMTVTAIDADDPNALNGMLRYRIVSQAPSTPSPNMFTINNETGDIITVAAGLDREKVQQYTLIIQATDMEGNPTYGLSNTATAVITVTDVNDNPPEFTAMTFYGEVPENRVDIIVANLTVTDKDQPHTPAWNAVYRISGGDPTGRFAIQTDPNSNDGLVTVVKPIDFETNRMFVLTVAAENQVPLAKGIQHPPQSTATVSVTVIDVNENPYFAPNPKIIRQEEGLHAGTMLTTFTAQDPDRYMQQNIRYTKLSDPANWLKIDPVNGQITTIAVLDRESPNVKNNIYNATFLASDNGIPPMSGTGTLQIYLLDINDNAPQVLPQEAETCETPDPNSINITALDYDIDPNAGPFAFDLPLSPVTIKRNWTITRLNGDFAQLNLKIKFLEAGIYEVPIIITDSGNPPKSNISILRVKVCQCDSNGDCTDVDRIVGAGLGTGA
As to the kind of experiment: SPR; N-cadherin amine-coupled to CM5 chip (about 3500 RU), Biacore T200, 25°C; 20 mM HEPES pH 7.4, 1 mM TCEP, 2 mM CaCl2, 150 mM NaCl, 5% DMSO; single cycle kinetics, peptide 2 to 167 µM; 1:1 binding model; both purified.

Test [2] addresses N-cadherin (CDH2) on glioma stem cells (human (endogenous in patient-derived GSCs)) (UniProt P19022). In words: flow cytometry on cells; EV peptide on GSCs after a knockdown of CDH2; only the binder purified.

Results are given in words; binding and its absence hold for the method and conditions named. Some entries that bind do so weakly or less than the wild type.

Turning to GGGSGGG [non-targeting (NT) peptide (GGGSGGG) of the SPR control], in test [1], the binding entry is reported as “no binding (tested: 2 to 167 µM)”.
For the molecule AWEFYFPGGGGSGGGGSGGGGSSSQPFWS (conjugated with biotin (position not given)) [biotinylated dual peptide EV (EV-b)], the binding result in test [2] is “binds”.
